Assay results published in article PMC9810599.
Results are given in words; binding and its absence hold for the method and conditions named. In cells and extracts the contact can be indirect. A yes stands for co-enrichment or nearness to the bait. Other partners may have been found. For some assays here: No binding means not detected with the bait. For some assays here: Where a sequence is shown, tags or fusion partners need not be part of it.

Amino acid sequences for entries named in this document (tags omitted). Residues count along the entry.
UniProt P0CS90, residues 24-654: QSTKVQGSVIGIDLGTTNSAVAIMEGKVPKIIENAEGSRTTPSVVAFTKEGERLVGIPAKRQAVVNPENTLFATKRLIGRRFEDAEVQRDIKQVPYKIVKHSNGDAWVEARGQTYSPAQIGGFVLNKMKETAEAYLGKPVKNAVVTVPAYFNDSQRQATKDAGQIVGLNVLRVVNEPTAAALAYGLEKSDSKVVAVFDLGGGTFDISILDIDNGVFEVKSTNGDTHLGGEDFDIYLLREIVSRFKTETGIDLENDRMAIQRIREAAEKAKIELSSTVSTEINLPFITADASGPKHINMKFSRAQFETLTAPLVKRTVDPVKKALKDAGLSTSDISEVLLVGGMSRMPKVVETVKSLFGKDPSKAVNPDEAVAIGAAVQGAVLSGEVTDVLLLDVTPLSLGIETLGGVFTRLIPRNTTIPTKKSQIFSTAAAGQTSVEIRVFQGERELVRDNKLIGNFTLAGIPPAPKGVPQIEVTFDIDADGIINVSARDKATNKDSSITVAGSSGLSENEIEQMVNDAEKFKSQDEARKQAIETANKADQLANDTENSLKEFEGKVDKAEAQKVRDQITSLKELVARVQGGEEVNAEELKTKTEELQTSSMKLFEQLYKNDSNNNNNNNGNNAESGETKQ

Assays:
[1] = target: mitochondrial Hsp70 (mtHsp70), wild type (S. cerevisiae (endogenous in yeast mitochondria)) (UniProt P0CS90); assay: affinity purification with mass spectrometry; Mge1His coupled to Ni-NTA agarose captures mtHsp70 with its bound proteins from digitonin lysates of SILAC-labelled wild-type and ρ0 mitochondria, in the absence of ATP
[2] = target: His-tagged mitochondrial Hsp70 (mtHsp70His) (S. cerevisiae) (UniProt P0CS90); assay: affinity purification with mass spectrometry; mtHsp70His purified on Ni-NTA agarose from digitonin-lysed mitochondria of SILAC-labelled ρ+ and ρ0 cells, in the absence of ATP; elution fractions mixed; ratios ρ0 versus ρ+

B1: Atp11 (assembly factor) (protein, UniProt P32453 41-318)
chain: QKYRKKLLEEAQKQGFNSIEELKNHLKETIESKKREFNKIDPLKELEDYQQKTQMENNNSKHLMTKSRSPLDPSAPKVPFKTLDSFLDVGKLKDLSKQEVEFLWRARWAQKDNTLCAVIPVSVYDKMMANARNNPIFVLPLPRQVQSEDAKPNEEQGMELHYIQWQFVGPQTTHCMMTSLAEYKLHQEFARPHTTLQFHSDLVKDKGIVFMNGHVEPDTNVNVQDAQLLLLNVQRFYGAMGEETPVAKQRVQLLRDFSKASPGFTVEKLISLSQSMEN
Question: How did the binding [1] turn out when B1 was run?
Answer: binds

Question: And the binding [2]?
Answer: binds

B2: Atp12 (assembly factor) (protein, UniProt P22135 33-325)
chain: DNTIENNTPTETNRLSKTSQKFWEKVSLNRDVEKGKIALQLDGRTIKTPLGNGIIVDNAKSLLAYLLKLEWSSLSSLSIKTHSLPLTSLVARCIDLQMTNEPGCDPQLVAKIGGNSDVIKNQLLRYLDTDTLLVFSPMNEFEGRLRNAQNELYIPIIKGMEEFLRNFSSESNIRLQILDADIHGLRGNQQSDIVKNAAKKYMSSLSPWDLAILEKTVLTTKSFICGVLLLENKKDTANLIPALKTDMDNIVRAATLETIFQVEKWGEVEDTHDVDKRDIRRKIHTAAIAAFKQ
Question: How did the binding [1] turn out when B2 was run?
Answer: binds

Question: What about the binding [2] of the same binder?
Answer: binds

B3: Atp3 (subunit γ of the ATP synthase) (protein, UniProt P38077 34-311)
chain: ATLKEVEMRLKSIKNIEKITKTMKIVASTRLSKAEKAKISAKKMDEAEQLFYKNAETKNLDVEATETGAPKELIVAITSDKGLCGSIHSQLAKAVRRHLNDQPNADIVTIGDKIKMQLLRTHPNNIKLSINGIGKDAPTFQESALIADKLLSVMKAGTYPKISIFYNDPVSSLSFEPSEKPIFNAKTIEQSPSFGKFEIDTDANVPRDLFEYTLANQMLTAMAQGYAAEISARRNAMDNASKNAGDMINRYSILYNRTRQAVITNELVDIITGASSLG
Question: How did the binding [2] turn out when B3 was run?
Answer: binds

B4: Atp15 (protein, UniProt P21306 1-62)
chain: MSAWRKAGISYAAYLNVAAQAIRSSLKTELQTASVLNRSQTDAFYTQYKNGTAASEPTPITK
Question: B4 was tested. Which binding [2] did it give?
Answer: binds

B5: Atp4 (subunit b of the ATP synthase) (protein, UniProt P05626 36-244)
chain: MSSTPEKQTDPKAKANSIINAIPGNNILTKTGVLGTSAAAVIYAISNELYVINDESILLLTFLGFTGLVAKYLAPAYKDFADARMKKVSDVLNASRNKHVEAVKDRIDSVSQLQNVAETTKVLFDVSKETVELESEAFELKQKVELAHEAKAVLDSWVRYEASLRQLEQRQLAKSVISRVQSELGNPKFQEKVLQQSISEIEQLLSKLK
Question: B5 was tested. Which binding [2] did it give?
Answer: binds

B6: Atp5 (oligomycin sensitivity conferring protein, OSCP) (protein, UniProt P09457 18-212)
chain: ASKAAAPPPVRLFGVEGTYATALYQAAAKNSSIDAAFQSLQKVESTVKKNPKLGHLLLNPALSLKDRNSVIDAIVETHKNLDGYVVNLLKVLSENNRLGCFEKIASDFGVLNDAHNGLLKGTVTSAEPLDPKSFKRIEKALSASKLVGQGKSLKLENVVKPEIKGGLIVELGDKTVDLSISTKIQKLNKVLEDSI
Question: Which binding [2] does the source give for B6 here?
Answer: binds

B7: Atp7 (subunit d of the ATP synthase) (protein, UniProt P30902 1-174)
chain: MSLAKSAANKLDWAKVISSLRITGSTATQLSSFKKRNDEARRQLLELQSQPTEVDFSHYRSVLKNTSVIDKIESYVKQYKPVKIDASKQLQVIESFEKHAMTNAKETESLVSKELKDLQSTLDNIQSARPFDELTVDDLTKIKPEIDAKVEEMVKKGKWDVPGYKDRFGNLNVM
Question: For B7, which binding [2] is on record?
Answer: binds

B8: Lys2 (protein, UniProt P07702 1-1392)
chain: MTNEKVWIEKLDNPTLSVLPHDFLRPQQEPYTKQATYSLQLPQLDVPHDSFSNKYAVALSVWAALIYRVTGDDDIVLYIANNKILRFNIQPTWSFNELYSTINNELNKLNSIEANFSFDELAEKIQSCQDLERTPQLFRLAFLENQDFKLDEFKHHLVDFALNLDTSNNAHVLNLIYNSLLYSNERVTIVADQFTQYLTAALSDPSNCITKISLITASSKDSLPDPTKNLGWCDFVGCIHDIFQDNAEAFPERTCVVETPTLNSDKSRSFTYRDINRTSNIVAHYLIKTGIKRGDVVMIYSSRGVDLMVCVMGVLKAGATFSVIDPAYPPARQTIYLGVAKPRGLIVIRAAGQLDQLVEDYINDELEIVSRINSIAIQENGTIEGGKLDNGEDVLAPYDHYKDTRTGVVVGPDSNPTLSFTSGSEGIPKGVLGRHFSLAYYFNWMSKRFNLTENDKFTMLSGIAHDPIQRDMFTPLFLGAQLYVPTQDDIGTPGRLAEWMSKYGCTVTHLTPAMGQLLTAQATTPFPKLHHAFFVGDILTKRDCLRLQTLAENCRIVNMYGTTETQRAVSYFEVKSKNDDPNFLKKLKDVMPAGKGMLNVQLLVVNRNDRTQICGIGEIGEIYVRAGGLAEGYRGLPELNKEKFVNNWFVEKDHWNYLDKDNGEPWRQFWLGPRDRLYRTGDLGRYLPNGDCECCGRADDQVKIRGFRIELGEIDTHISQHPLVRENITLVRKNADNEPTLITFMVPRFDKPDDLSKFQSDVPKEVETDPIVKGLIGYHLLSKDIRTFLKKRLASYAMPSLIVVMDKLPLNPNGKVDKPKLQFPTPKQLNLVAENTVSETDDSQFTNVEREVRDLWLSILPTKPASVSPDDSFFDLGGHSILATKMIFTLKKKLQVDLPLGTIFKYPTIKAFAAEIDRIKSSGGSSQGEVVENVTANYAEDAKKLVETLPSSYPSREYFVEPNSAEGKTTINVFVTGVTGFLGSYILADLLGRSPKNYSFKVFAHVRAKDEEAAFARLQKAGITYGTWNEKFASNIKVVLGDLSKSQFGLSDEKWMDLANTVDIIIHNGALVHWVYPYAKLRDPNVISTINVMSLAAVGKPKFFDFVSSTSTLDTEYYFNLSDKLVSEGKPGILESDDLMNSASGLTGGYGQSKWAAEYIIRRAGERGLRGCIVRPGYVTGASANGSSNTDDFLLRFLKGSVQLGKIPDIENSVNMVPVDHVARVVVATSLNPPKENELAVAQVTGHPRILFKDYLYTLHDYGYDVEIESYSKWKKSLEASVIDRNEENALYPLLHMVLDNLPESTKAPELDDRNAVASLKKDTAWTGVDWSNGIGVTPEEVGIYIAFLNKVGFLPPPTHNDKLPLPSIELTQAQISLVASGAGARGSSAAA
Question: B8 was tested. Which binding [2] did it give?
Answer: no binding

B9: Ccp1 (protein, UniProt P00431 68-361)
chain: TTPLVHVASVEKGRSYEDFQKVYNAIALKLREDDEYDNYIGYGPVLVRLAWHTSGTWDKHDNTGGSYGGTYRFKKEFNDPSNAGLQNGFKFLEPIHKEFPWISSGDLFSLGGVTAVQEMQGPKIPWRCGRVDTPEDTTPDNGRLPDADKDADYVRTFFQRLNMNDREVVALMGAHALGKTHLKNSGYEGPWGAANNVFTNEFYLNLLNEDWKLEKNDANNEQWDSKSGYMMLPTDYSLIQDPKYLSIVKEYANDQDKFFKDFSKAFEKLLENGITFPKDAPSPFIFKTLEEQGL
Question: B9 was tested. Which binding [2] did it give?
Answer: no binding
